Experimental data from the supplement of paper PMC8104966.
The other results are listed elsewhere or left out. Single values are uncertain here, since repeats match poorly.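 Fusion between ACE2-bearing and full-length-spike-bearing U2OS cells was measured by imaging as the percentage of nuclei with both cell types' fluorescent markers. An inhibitory hit is a non-toxic compound whose fusion z-score is below -3, more than three standard deviations beneath the plate's DMSO wells.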

System: U2OS ACE2 x SARS-CoV-2 spike co-culture
Assay: cell-cell fusion (fraction fused) z-score vs plate DMSO control; higher = more fusion
Settings: 30 µM; 5 h; toxicity class: non-toxic, passed QC

Row | Structure (SMILES) | cell-cell fusion (z-score)
1 | O.O.O.Cl.Cl.CN1CC\C(CC1)=C1/c2ccccc2C=Cc2ccccc12.CN1CC\C(CC1)=C1/c2ccccc2C=Cc2ccccc12 [Cyproheptadine hydrochloride] | inactive: 1.98
2 | CCOC(=O)c1ncn2c1[C@@H]1CCCN1C(=O)c1cc(OC)ccc1-2 | inactive: 2.23
3 | N#CCCN.O=C(O)/C=C/C(=O)O | inactive: 2.02
4 | COc1ccc2c(c1)OCC(Cc1ccc(O)c(OC)c1)C2=O (stereo not given) | inactive: 1.42
5 | CC(C)Cn1c(=O)n(C)c(=O)c2nc[nH]c21 | inactive: 0.102
6 | CCOc1nc2cccc(C(=O)OC(C)OC(=O)OC3CCCCC3)c2n1Cc1ccc(-c2ccccc2-c2nn[nH]n2)cc1 (stereo not given) [Candesartan cilexetil] | inactive: -0.686
7 | O=C1C=C2C=C[C@@H]3C[C@@]2(O1)[C@H]1CCCCN31 | inactive: -2
8 | CC(=O)OCC(=O)[C@@]1(O)CC[C@H]2[C@@H]3CCC4=CC(=O)C=C[C@]4(C)[C@@]3(Cl)[C@@H](Cl)C[C@@]21C | inactive: 2.92
9 | C[C@H](O[C@H]1OCCN(Cc2n[nH]c(=O)[nH]2)[C@H]1c1ccc(F)cc1)c1cc(C(F)(F)F)cc(C(F)(F)F)c1 [Aprepitant (MK-0869)] | inactive: 2.13
10 | CC1(C)S[C@@H]2[C@H](NC(=O)COc3ccccc3)C(=O)N2[C@H]1C(=O)[O-].[K+] | inactive: 0.208
11 | Cn1c(=O)c2[nH]cnc2n(C)c1=O.Cn1c(=O)c2[nH]cnc2n(C)c1=O.NCCN [Aminophylline ethylenediamine] | inactive: 0.535
12 | FC(F)(F)C(Cl)Br (stereo not given) [Anestan] | inactive: 2.02
13 | FC(F)(F)C(Cl)Br (stereo not given) | inactive: 1.05
14 | C[C@H](CCC(=O)O)[C@H]1CC[C@H]2[C@@H]3CC[C@@H]4C[C@H](O)CC[C@]4(C)[C@H]3CC[C@]12C [Lithocholic acid] | inactive: 2.19
15 | O=C(O)[C@H](Cc1c[nH]c2ccccc12)N1C(=O)c2ccccc2C1=O | inactive: 2.23
16 | CC(O)CN(CCN(CC(C)O)CC(C)O)CC(C)O (stereo not given) | inactive: 0.626
17 | CCCS(=O)(=O)Nc1ccc(F)c(C(=O)c2c[nH]c3ncc(-c4ccc(Cl)cc4)cc23)c1F [Vemurafenib] | inactive: 0.623
18 | Cl.NNc1nncc2ccccc12 [Hydralazine hydrochloride] | inactive: 3.35
19 | N=C(N)NN.O=S(=O)(O)O | inactive: 2.22
20 | Cc1ccccc1N1C(=O)c2cc(S(N)(=O)=O)c(Cl)cc2NC1C (stereo not given) [Metolazone] | inactive: 1.62
21 | Nc1ccc(S(=O)(=O)NC(=O)c2ccccc2)cc1 [Sulfabenzamide] | inactive: 3.09
22 | CCCCCOC(=O)Nc1nc(=O)n([C@@H]2O[C@H](C)[C@@H](O)[C@@H]2O)cc1F [Capecitabine (Xeloda)] | inactive: 1.02
23 | C=CCSCC1Nc2cc(Cl)c(S(N)(=O)=O)cc2S(=O)(=O)N1 (stereo not given) | inactive: 3.79
24 | COc1ccc(C2=NC(c3ccc(Cl)cc3)C(c3ccc(Cl)cc3)N2C(=O)N2CCNC(=O)C2)c(OC(C)C)c1 (stereo not given) [Nutlin-3] | active: -3.1

Row | Structure (SMILES) | cell-cell fusion (z-score)
25 | NS(=O)(=O)c1cc(C(=O)O)c(NCc2ccco2)cc1Cl [Furosemide] | inactive: 3.34
26 | Oc1c(Br)cc(Br)c2cccnc12 | inactive: 1.05
27 | OC[C@H]1OC(n2cnc3c(N[C@H]4CCC[C@@H]4O)ncnc32)[C@H](O)[C@@H]1O (stereo not given in full) | inactive: 1.16
28 | CC(C)CC(NC(=O)CCN)C(=O)O (racemic) | inactive: 2.25
29 | CC(C)(O)c1ccccc1CC[C@@H](SCC1(CC(=O)[O-])CC1)c1cccc(/C=C/c2ccc3ccc(Cl)cc3n2)c1.[Na+] [Montelukast sodium] | inactive: 0.902
30 | c1cc(CN2CCCNCCNCCCNCC2)ccc1CN1CCCNCCNCCCNCC1 [Plerixafor] | inactive: 1.03
31 | CCn1cc(C(=O)O)c(=O)c2cc(F)c(N3CCNC(C)C3)c(F)c21.NCCO (stereo not given) | inactive: 0.43
32 | CCCC(=O)Nc1ccc(OCC(O)CNC(C)C)c(C(C)=O)c1.Cl (stereo not given) [Acebutolol hydrochloride] | inactive: -0.0315
33 | CCCCC(O)c1ccccc1 (stereo not given) [Fenipentol] | inactive: 2.02
34 | O=C(O)c1cc(/N=N/c2ccc(S(=O)(=O)Nc3ccccn3)cc2)ccc1O | inactive: -0.146
35 | CC1(C)C=Cc2c(c3c(c4c(=O)c(-c5ccc(O)c(O)c5)coc24)OC(C)(C)CC3)O1 | active: -5.31
36 | CCN1CCCC(OC(=O)C(c2ccccc2)c2ccccc2)C1.Cl (stereo not given) | inactive: 1.58
37 | CCCCc1ncc(/C=C(\Cc2cccs2)C(=O)O)n1Cc1ccc(C(=O)O)cc1.CS(=O)(=O)O [Eprosartan Mesylate] | inactive: 2.71
38 | O=C(O)CCCCC1CCSS1 (stereo not given) | inactive: 2.39
39 | CO[C@H]1/C=C/O[C@@]2(C)Oc3c(C)c(O)c4c(O)c(c5c(nc6cc(C)ccn65)c4c3C2=O)NC(=O)/C(C)=C\C=C\[C@H](C)[C@H](O)[C@@H](C)C(O)[C@@H](C)[C@H](OC(C)=O)[C@@H]1C (stereo not given in full) | inactive: 3.97
40 | CO[C@]12C[C@@H](COC(=O)c3cncc(Br)c3)CN(C)[C@@H]1Cc1cn(C)c3cccc2c13 | inactive: 2.5
41 | CCCCCCCCCCCCCCCC(=O)OCC(O)CO (stereo not given) | inactive: 2.62
42 | CC1(C)CC[C@]2(C(=O)O)CC[C@]3(C)C(=CCC4[C@@]5(C)CC[C@H](O)[C@@](C)(CO)C5CC[C@]43C)C2C1 (stereo not given in full) | inactive: 2.42
43 | Cl.O=c1n(CCCN2CCN(c3cccc(Cl)c3)CC2)nc2ccccn12 [Trazodone hydrochloride] | inactive: 3.79
44 | CC(C)[C@@H]1CC[C@@H](C)C[C@@H]1P(=O)(c1ccccc1)c1ccccc1 | inactive: 2.51
45 | CC(=O)NBr [N-Bromoacetamide] | inactive: 1.99
46 | CN1CCCC1CCOC(C)(c1ccccc1)c1ccc(Cl)cc1.O=C(O)/C=C/C(=O)O (stereo not given) [Clemastine fumarate] | inactive: 2.25
47 | Cn1c(=O)c2[nH]cnc2n(C)c1=O.O [Theophylline monohydrate] | inactive: 1.69
48 | Cl.Clc1ccc(Cn2c(CN3CCCC3)nc3ccccc32)cc1 [Clemizole hydrochloride] | inactive: 1.55

A few values from the results shown.
In cell-cell fusion (z-score), COc1ccc(C2=NC(c3ccc(Cl)cc3)C(c3ccc(Cl)cc3)N2C(=O)N2CCNC(=O)C2)c(OC(C)C)c1 (stereo not given) [Nutlin-3] has active: -3.1
In cell-cell fusion (z-score), FC(F)(F)C(Cl)Br (stereo not given) [Anestan] has inactive: 2.02
In cell-cell fusion (z-score), COc1ccc2c(c1)OCC(Cc1ccc(O)c(OC)c1)C2=O (stereo not given) has inactive: 1.42
In cell-cell fusion (z-score), CC1(C)C=Cc2c(c3c(c4c(=O)c(-c5ccc(O)c(O)c5)coc24)OC(C)(C)CC3)O1 has active: -5.31

(further entries)

Row | Structure (SMILES) | cell-cell fusion (z-score)
49 | CNC(=O)c1ccc(N2C(=S)N(c3cnc(C#N)c(C(F)(F)F)c3)C(=O)C23CCC3)cc1F [Apalutamide] | inactive: 1.85
50 | O=c1[nH]c(=O)n([C@H]2C[C@H](O)[C@@H](CO)O2)cc1C(F)(F)F [Trifluridine] | inactive: 4.06
51 | O=C1O[C@@H](CO)[C@H](O)[C@@H](O)[C@@H]1O | inactive: 2.74
52 | C[C@@H]1CCO[C@H]2Cn3cc(C(=O)NCc4ccc(F)cc4F)c(=O)c([O-])c3C(=O)N12.[Na+] [Dolutegravir sodium] | inactive: 2.43
53 | CCC(=O)c1ccc(O)cc1 | inactive: 2.48
54 | O=c1cc(-c2ccccc2)oc2ccccc12 | inactive: 1.34
55 | Nc1cc(-c2ccncc2)c[nH]c1=O [Amrinone] | inactive: 2.92
56 | CNC(=O)c1ccccc1Sc1ccc2c(/C=C/c3ccccn3)n[nH]c2c1 [Axitinib] | inactive: 1.22
57 | CN(C)C/C=C(/c1ccc(Br)cc1)c1cccnc1.Cl.Cl [Zimelidine dihydrochloride] | inactive: 0.163
58 | CC[C@H]1OC(=O)[C@H](C)[C@@H](O[C@H]2C[C@@](C)(OC)[C@@H](O)[C@H](C)O2)[C@H](C)[C@@H](O[C@@H]2O[C@H](C)C[C@H](N(C)C)[C@H]2O)[C@](C)(O)C[C@@H](C)CN(C)[C@H](C)[C@@H](O)[C@]1(C)O [Azithromycin] | inactive: -0.373
59 | CC[C@H]1OC(=O)[C@H](C)[C@@H](O[C@H]2C[C@@](C)(OC)[C@@H](O)[C@H](C)O2)[C@H](C)[C@@H](O[C@@H]2O[C@H](C)C[C@H](N(C)C)[C@H]2O)[C@](C)(O)C[C@@H](C)CN(C)[C@H](C)[C@@H](O)[C@]1(C)O | inactive: 3.52
60 | CC(N)CCCC(C)(C)O.Cl (stereo not given) | inactive: 0.618
61 | O=C(O)c1cccc(O)c1O | inactive: 1.52
62 | COc1ccccc1N1CCNCC1.Cl [1-(2-Methoxyphenyl)piperazine hydrochloride] | inactive: 2.19
63 | NC(=O)CC[C@H](N)C(=O)O [L-Glutamine] | inactive: 3.62
64 | O=C(CCCN1CC=C(n2c(=O)[nH]c3ccccc32)CC1)c1ccc(F)cc1 [Droperidol] | inactive: 3.05
65 | O=C(O)Cc1ccc(-c2ccccc2)cc1 | inactive: 2.56
66 | COc1ccc(C(=O)c2ccccc2)c(O)c1 | inactive: -0.369
67 | [Cl-].c1ccc2c(c1)[I+]c1ccccc1-2 [Diphenyleneiodonium chloride] | inactive: 2.6
68 | CC(C)CC(N)=O | inactive: 3.14
69 | CO[C@H]1/C=C/O[C@@]2(C)Oc3c(C)c(O)c4c(O)c(c5c(nc6cc(C)ccn65)c4c3C2=O)NC(=O)/C(C)=C\C=C\[C@H](C)[C@H](O)[C@@H](C)[C@@H](O)[C@@H](C)[C@H](OC(C)=O)[C@@H]1C [Rifaximin] | inactive: 5.72
70 | CSc1nc(N)c2ncn([C@@H]3O[C@H](COP(=O)([O-])OP(=O)([O-])[O-])[C@H](O)C3O)c2n1.[Na+].[Na+].[Na+] (stereo not given in full) | inactive: 1.67
